Reference: PubChem BioAssay AID1259308 (NCATS, 2017)

Aim: 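Candidate targets for better recombinant protein yield in mammalian cells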 (primary screen)
Cells: human HEK293 embryonic kidney cells stably expressing firefly luciferase (HEK-CMV-Luc2-Hygro)
Reagents: single siRNA against human genes, 0.8 pmol siRNA per well
Timing: 72 h
Detection: 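Reporter luminescence and viable-cell signal on separate replicate plates, given as percent of non-targeting control and median/MAD z-scores, plus per-cell luciferase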
Reading the numbers: total luciferase, z-score and total luciferase, % of control: higher = more reporter protein produced; luciferase per cell, z-score: higher = more reporter output per viable cell; viable cells, % of control: higher = more viable cells
Call rule: 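An siRNA counts as active if its total luciferase robust z-score exceeds 3; genes with two or more such siRNAs out of three were retested with fresh siRNAs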
Calls: active = raised luciferase; inactive = no rise
In all, the deposit lists about 59,000 reagents; below is a random part of them. About 1,510 of all reagents (2.6%) count as active. 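Calls use total luciferase alone and ignore viability, so some active siRNAs may act by altering cell number.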 Unmarked entries are inactive. The numbers tell different reagents against one gene apart.

no.	target	reagent no.	total luciferase, z-score	total luciferase, % of control	luciferase per cell, z-score	viable cells, % of control
1	CORT	1	1.45	111	0.882	98
2	CORT	2	1.69	116	1.2	94.1
3	CORT	3	1.01	102	1.07	85.9
4	MYF5	1	-0.877	64.4	-0.0028	72.1
5	MYF5	2	-1.04	61.3	-1.26	95.4
6	MYF5	3	1.73	116	0.889	103
7	DCAF4L1	1	-0.59	70.1	-0.556	90.7
8	DCAF4L1	2	1.29	108	1.04	91.3
9	DCAF4L1	3	0.93	100	1.48	75.9
10	IL1R1	1	-0.75	67	-1.77	119
11	IL1R1	2	0.299	87.8	0.242	92.1
12	IL1R1	3	0.467	91.2	-0.302	110
13	NPC1L1	1	2.69	135	1.53	101
14	NPC1L1	2	1.92	120	0.882	106
15	NPC1L1	3	0.000571	81.9	-0.234	97.3
16	MLEC	1	-2.21	37.9	-3.2	98.5
17	MLEC	2	0.303	87.9	-0.183	103
18	MLEC	3	-0.194	78	-0.965	112
19	MEGF6	1	-0.893	64.1	-0.155	74.7
20	MEGF6	2	0.252	86.9	1.6	63.8
21	MEGF6	3	-2.03	41.4	-1.59	70.4

5 successive reagents from above:
no.	target	reagent no.	total luciferase, z-score	total luciferase, % of control	luciferase per cell, z-score	viable cells, % of control
17	MLEC	2	0.303	87.9	-0.183	103
18	MLEC	3	-0.194	78	-0.965	112
19	MEGF6	1	-0.893	64.1	-0.155	74.7
20	MEGF6	2	0.252	86.9	1.6	63.8
21	MEGF6	3	-2.03	41.4	-1.59	70.4

More reagents follow.
no.	target	reagent no.	total luciferase, z-score	total luciferase, % of control	luciferase per cell, z-score	viable cells, % of control
22	PRUNE2	1	0.178	85.4	0.167	91.4
23	PRUNE2	2	-0.0898	80.1	-0.357	98.3
24	PRUNE2	3	0.177	85.4	0.217	90.2
25	RBM34	1	0.143	84.7	0.203	89.8
26	RBM34	2	0.0317	82.5	-0.883	116
27	RBM34	3	-0.491	72.1	-0.942	103
28	ZC3H4	1	0.322	88.3	0.342	90.2
29	ZC3H4	2	0.364	89.1	0.117	96.6
30	ZC3H4	3	0.173	85.3	0.75	78.3
31	TERF2	1	0.928	100	0.303	104
32	TERF2	2	0.233	86.5	-0.314	105
33	TERF2	3	0.153	84.9	0.148	91.3
34	PIP4P1	1	-1.45	53.1	-1.32	83.9
35	PIP4P1	2	-0.593	70.1	-0.211	82.8
36	PIP4P1	3	1.57	113	1.79	79
37	FARS2	1	3.9 (active)	159	2.81	84.9
38	FARS2	2	-1.87	44.7	0.14	48.2
39	FARS2	3	0.974	101	1.02	86.4
